Values from PubChem BioAssay AID652272 (Drosophila RNAi Screening Center, 2013).
In all, the deposit lists about 21,000 reagents; this is an unselected part of those that have a named target and a result. Of all reagents, 503 (2.4%) were called active. 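Raw plate light values, not normalised; calls rest on replicate z-scores that were not deposited; hits include reporter decreases as well as increases.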 Names joined by + are all predicted targets of the reagent. The record does not give: the amount of reagent, the time to read-out.

- Test: 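Genome-wide knock-down search for components of Hedgehog signalling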 (primary screen)
- Cell system: Drosophila clone 8 (Cl8) cells
- Reagent: long dsRNA against Drosophila genes
- Measured: 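Firefly light from a Hedgehog-responsive ptc promoter reporter and Renilla reference light, both read on a plate reader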
- Reading the numbers: firefly Hh reporter signal: higher = more ptc reporter light; Renilla reference signal: higher = more Renilla control light
- Active means: 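Hit when the z-score averaged over two replicates is under -2 or over +3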
- Calls: active = hit: reporter lowered or raised; inactive = not a hit

gene | dsRNA | firefly Hh reporter signal, replicate 1 | firefly Hh reporter signal, replicate 2 | firefly Hh reporter signal, replicate 3 | Renilla reference signal, replicate 1 | Renilla reference signal, replicate 2 | Call
Dyro (GeneID 39271) | DRSC10598 | 36522 | 33536 | 23297 | 4652 | 2118 | inactive
gammaCOP (GeneID 43717) | DRSC16955 | 1.16e5 | 36528 | – | 7332 | 2160 | active
C15 (GeneID 42544) | DRSC13495 | 59147 | 2.13e5 | – | 12608 | 4610 | inactive
C15 (GeneID 42544) | DRSC14169 | 4.85e5 | 1.53e5 | – | 26276 | 3155 | inactive
shakB (GeneID 33062) | DRSC20420 | 7.52e5 | 3.09e5 | – | 42009 | 5382 | inactive
shakB (GeneID 33062) | DRSC20423 | 7.20e5 | 2.86e5 | – | 43369 | 5009 | inactive
shakB (GeneID 33062) | DRSC20492 | 1.15e5 | 3.58e5 | – | 2296 | 14624 | inactive
shakB (GeneID 33062) | DRSC20585 | 68432 | 1.78e5 | – | 2280 | 7737 | inactive
Gclc (GeneID 53581) | DRSC18666 | 1.02e5 | 2.89e5 | – | 4154 | 11024 | inactive
CG10845 (GeneID 42978) | DRSC14272 | 5.02e5 | 1.31e5 | – | 24234 | 3772 | inactive
Hip14 (GeneID 39747) | DRSC10570 | 1.48e5 | 66861 | – | 6322 | 2856 | inactive
rl (GeneID 3354888) | DRSC07833 | 1.09e5 | 53819 | – | 3241 | 4039 | inactive
rl (GeneID 3354888) | DRSC20742 | 75152 | 1.71e5 | – | 2736 | 6995 | inactive
CG33969 (GeneID 40252) | DRSC11777 | 75555 | 73961 | – | 2509 | 1676 | inactive
Gss1 + Gss2 | DRSC20008 | 1.41e5 | 2.92e5 | – | 4710 | 13274 | inactive
Aprt (GeneID 48224) | DRSC08139 | 87824 | 27399 | – | 2700 | 2538 | inactive
Acp36DE (GeneID 35096) | DRSC01860 | 1.18e5 | 68992 | – | 2688 | 5442 | inactive
CG31913 (GeneID 319023) | DRSC00892 | 4.89e5 | 1.43e5 | – | 24707 | 6587 | inactive
CG16749 (GeneID 41111) | DRSC15146 | 78555 | 1.16e5 | – | 2236 | 2977 | inactive
CG2964 (GeneID 33475) | DRSC00554 | 1.85e5 | 1.53e5 | – | 4272 | 3849 | inactive
CG5646 (GeneID 43311) | DRSC15853 | 1.00e5 | 59392 | – | 2380 | 1744 | inactive
CG13047 (GeneID 39790) | DRSC09928 | 1.76e5 | – | – | 7008 | 4578 | inactive
Oseg6 (GeneID 37245) | DRSC06066 | 81864 | 72790 | – | 1916 | 4497 | inactive
CG17726 (GeneID 41349) | DRSC15255 | 7.43e5 | 1.19e5 | – | 4956 | 4956 | inactive
fs(1)Yb (GeneID 31262) | DRSC18777 | 73485 | 2.18e5 | – | 1776 | 9085 | inactive
Cka (GeneID 34096) | DRSC03476 | 1.20e5 | 69273 | – | 3921 | 7020 | inactive
Ccp84Ag (GeneID 40819) | DRSC12592 | 1.17e5 | 1.44e5 | – | 3632 | 4081 | inactive
lva (GeneID 31350) | DRSC18403 | 1.31e5 | 1.42e5 | – | 2576 | 5017 | inactive
CG4679 (GeneID 36466) | DRSC06880 | 78464 | 34139 | – | 2152 | 2771 | inactive
fu (GeneID 32855) | DRSC20333 | 1.06e5 | 34272 | – | 14421 | 1238 | active
CG3124 (GeneID 37688) | DRSC04339 | 48128 | 14756 | – | 672 | 1704 | inactive
CG1806 (GeneID 32163) | DRSC19787 | 86800 | 81110 | – | 2213 | 1989 | inactive
eEF1gamma (GeneID 44791) | DRSC16659 | 45828 | 44833 | – | 1652 | 2169 | inactive
CG12617 (GeneID 50470) | DRSC02176 | 69699 | 43175 | – | 2192 | 4924 | inactive
CG14043 (GeneID 33714) | DRSC02368 | 1.08e5 | 39440 | – | 2841 | 3884 | inactive
CG13786 (GeneID 34006) | DRSC02289 | 1.61e5 | 60292 | – | 3972 | 5036 | inactive
Or49b (GeneID 36413) | DRSC07494 | 80245 | 52128 | – | 2076 | 3749 | inactive
CG15529 (GeneID 43584) | DRSC15066 | 1.02e5 | 69152 | – | 4406 | 641 | inactive
CG8006 (GeneID 38920) | DRSC10949 | 81184 | 72000 | – | 3270 | 2517 | inactive
wwk (GeneID 34886) | DRSC01941 | 1.22e5 | 68960 | – | 3013 | 6376 | inactive
RabX2 (GeneID 31971) | DRSC18234 | 1.01e5 | 4.70e5 | 3.30e5 | 3593 | 4470 | inactive
CG31793 (GeneID 326161) | DRSC02605 | 63336 | 34186 | – | 1889 | 3297 | inactive
PolH (GeneID 40438) | DRSC11800 | 1.39e5 | 1.16e5 | – | 5440 | 5153 | inactive
CG3515 (GeneID 33437) | DRSC00609 | 89096 | 66145 | – | 2608 | 1888 | inactive
Tango5 (GeneID 326232) | DRSC18023 | 74880 | 62688 | – | 1869 | 1368 | inactive
CG9240 (GeneID 32505) | DRSC20177 | 76205 | 1.28e5 | – | 2221 | 5477 | inactive
eIF4G1 (GeneID 43839) | DRSC17218 | 1.05e5 | 96563 | – | 2061 | 2758 | inactive
mei-41 (GeneID 32608) | DRSC20350 | 37845 | 1.74e5 | – | 1133 | 7067 | inactive
CG6912 (GeneID 41820) | DRSC16132 | 82080 | 1.41e5 | – | 3409 | 4444 | inactive
Ppn (GeneID 43872) | DRSC15328 | 1.10e5 | 1.40e5 | – | 2850 | 4859 | inactive
Alp9 (GeneID 38633) | DRSC10486 | 88091 | 1.12e5 | – | 3904 | 4071 | inactive
CG34338 (GeneID 5740687) | DRSC17535 | 4.92e5 | 1.34e5 | – | 28836 | 3585 | inactive
RIOK1 (GeneID 39309) | DRSC09853 | 1.40e5 | 98493 | – | 6123 | 4359 | inactive
His4r (GeneID 41773) | DRSC16703 | 22803 | 33136 | – | 851 | 886 | inactive
CG32091 (GeneID 39307) | DRSC10141 | 51079 | 49541 | 35579 | 6210 | 3347 | inactive
CG32091 (GeneID 39307) | DRSC10820 | 35108 | 54665 | 67563 | 5113 | 4748 | inactive
hoe1 (GeneID 249663) | DRSC00265 | 55851 | 50450 | – | 2688 | 1945 | inactive
hoe1 (GeneID 249663) | DRSC00333 | 1.51e5 | 52461 | – | 4160 | 6289 | inactive
hoe1 (GeneID 249663) | DRSC00353 | 1.34e5 | 35029 | – | 3988 | 4828 | inactive

Active calls (from the list above):
gene | dsRNA | firefly Hh reporter signal, replicate 1 | firefly Hh reporter signal, replicate 2 | firefly Hh reporter signal, replicate 3 | Renilla reference signal, replicate 1 | Renilla reference signal, replicate 2 | Call
gammaCOP (GeneID 43717) | DRSC16955 | 1.16e5 | 36528 | – | 7332 | 2160 | active
fu (GeneID 32855) | DRSC20333 | 1.06e5 | 34272 | – | 14421 | 1238 | active
